Values from PubChem BioAssay AID720505 (Drosophila RNAi Screening Center, 2013)

Test: 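Fly regulators or components of the CRAC channel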 (primary screen)
System: Drosophila S2R+ cells
Reagents: long dsRNA against Drosophila genes
Challenge: thapsigargin (2 µM) in calcium-free buffer to empty internal stores, then 2 mM calcium added back
Detection: 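Stores emptied by 2 µM thapsigargin without calcium, then 2 mM calcium re-added; fluo-4 fluorescence followed by FLIPR in 384-well plates, per-well averaged endpoint, raw; two screen passes, some wells retested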
Reading the numbers: calcium signal and retest calcium signal: higher = more calcium entry after store depletion
Call rule: 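About 1500 genes called as lowering calcium entry, by varying amounts, judged against per-plate control wells with STIM1 as positive and Rho1 as negative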
Meaning of the calls: active = called as lowering calcium entry; inactive = not called
In all, the deposit lists about 20,000 reagents; below is a random part of those that have a named target and a result. Of all reagents, about 2,100 (10%) got an active call. 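Raw plate signals without normalisation; calls rest on control-based scores that were not deposited; replicate 2 separates called from uncalled poorly.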 Entries without a mark were called inactive. The numbers tell different reagents against one gene apart. Names joined by + are all predicted targets of the reagent. The record does not give: the amount of reagent, the time to read-out.

| predicted target | reagent | calcium signal, replicate 1 | calcium signal, replicate 2 | retest calcium signal, replicate 1 | retest calcium signal, replicate 2 |
| --- | --- | --- | --- | --- | --- |
| CG6429 | 1 | 84.4 | 81.3 | – | – |
| indra | 1 | 157 | 116 | – | – |
| CG2202 | 1 | 177 | 129 | 103 | 104 |
| Csas | 1 | 118 | 100 | – | – |
| sun | 1 | 90.8 | 115 | – | – |
| pcs | 1 | 172 | 142 | – | – |
| lncRNA:CR30055 | 1 | 154 | 211 | – | – |
| Acp36DE | 1 | 72.5 (active) | 128 | – | – |
| CG13039 | 1 | 68.4 | 104 | – | – |
| CG14442 | 1 | 180 | 100 | – | – |
| CG13004 | 1 | 70.8 (active) | 114 | – | – |
| CG5597 | 1 | 93.6 | 98.6 | – | – |
| Tsp66E | 1 | 95.1 | 84.4 | – | – |
| CheB38b | 1 | 107 | 139 | – | – |
| S-Lap3 | 1 | 77.5 | 78.7 | – | – |
| Cfp1 | 1 | 63.3 (active) | 78.1 | – | – |
| CG14866 | 1 | 114 | 170 | – | – |
| Sps1 | 1 | 189 | 178 | – | – |
| Dscam2 | 1 | 6948 | 137 | – | – |
| Dscam2 | 2 | 84.4 | 71 | – | – |
| Dscam2 | 3 | 82 | 49.3 | – | – |
| Dscam2 | 4 | 90.4 | 81.3 | – | – |
| Dscam2 | 5 | 103 | 76.6 | – | – |
| Dscam2 | 6 | 92.1 | 85.2 | – | – |
| PCNA | 1 | 73.9 (active) | 89.6 | – | – |
| SKIP | 1 | 176 | 152 | – | – |
| SKIP | 2 | 205 | 149 | – | – |
| SKIP | 3 | 204 | 178 | – | – |
| SKIP | 4 | 65.8 (active) | 119 | 166 | 134 |
| SKIP | 5 | 183 | 150 | 8151 | 174 |

In a second layout: entries from further up
S-Lap3: calcium signal, replicate 1 = 77.5; calcium signal, replicate 2 = 78.7
Cfp1: calcium signal, replicate 1 = 63.3 (active); calcium signal, replicate 2 = 78.1
CG14866: calcium signal, replicate 1 = 114; calcium signal, replicate 2 = 170
Sps1: calcium signal, replicate 1 = 189; calcium signal, replicate 2 = 178
Dscam2 #1: calcium signal, replicate 1 = 6948; calcium signal, replicate 2 = 137
Dscam2 #2: calcium signal, replicate 1 = 84.4; calcium signal, replicate 2 = 71
Dscam2 #3: calcium signal, replicate 1 = 82; calcium signal, replicate 2 = 49.3
Dscam2 #4: calcium signal, replicate 1 = 90.4; calcium signal, replicate 2 = 81.3
Dscam2 #5: calcium signal, replicate 1 = 103; calcium signal, replicate 2 = 76.6

The list goes on.
| predicted target | reagent | calcium signal, replicate 1 | calcium signal, replicate 2 | retest calcium signal, replicate 1 | retest calcium signal, replicate 2 |
| --- | --- | --- | --- | --- | --- |
| p24-1 | 1 | 93.2 | 93.3 | – | – |
| nvy | 1 | 197 | 112 | 142 | 109 |
| Cog2 | 1 | 112 | 153 | – | – |
| flw | 1 | 71.4 | 104 | – | – |
| flw | 2 | 64.7 | 112 | – | – |
| CG42502 + CG10570 | 1 | 77.1 | 83.7 | – | – |
| Nup160 | 1 | 157 | 122 | – | – |
| CG7550 | 1 | 104 | 75.4 | – | – |
| ACXE | 1 | 119 | 177 | – | – |
| Prp40 | 1 | 120 | 259 | – | – |
| pps | 1 | 168 | 114 | – | – |
| UQCR-11L | 1 | 86.9 | 264 | – | – |
| LpR1 | 1 | 109 | 94.6 | – | – |
| LpR1 | 2 | 144 | 133 | – | – |
| LpR1 | 3 | 155 | 121 | – | – |
| Uxs | 1 | 106 | 94.5 | – | – |
| AANATL3 | 1 | 84.5 | 127 | – | – |
| GluProRS | 1 | 133 | 204 | – | – |
| CG16995 | 1 | 154 | 147 | – | – |
| ftz-f1 | 1 | 62.5 | 102 | – | – |
| nAChRalpha6 | 1 | 184 | 106 | – | – |
| nAChRalpha6 | 2 | 136 | 81.8 | – | – |
| nAChRalpha6 | 3 | 111 | 147 | – | – |
| CG3558 | 1 | 105 | 271 | – | – |
| gd | 1 | 146 | 111 | – | – |
| zetaTry | 1 | 134 | 160 | – | – |
